In US20120101083A1, “S1P1 AGONISTS COMPRISING A BICYCLIC N-CONTAINING RING” (GLAXO GROUP LIMITED, priority 2009, published 2012):
Where a name gives a salt, the structure may show the parent alone. Some entries share one result that the patent states for a list of compounds.

By UniProt entry, the sequences of proteins in these tests, tags left out. Where a name states a change or a piece, a line headed by the entry shows the natural chain unless it says otherwise.
UniProt P21453, whole entry: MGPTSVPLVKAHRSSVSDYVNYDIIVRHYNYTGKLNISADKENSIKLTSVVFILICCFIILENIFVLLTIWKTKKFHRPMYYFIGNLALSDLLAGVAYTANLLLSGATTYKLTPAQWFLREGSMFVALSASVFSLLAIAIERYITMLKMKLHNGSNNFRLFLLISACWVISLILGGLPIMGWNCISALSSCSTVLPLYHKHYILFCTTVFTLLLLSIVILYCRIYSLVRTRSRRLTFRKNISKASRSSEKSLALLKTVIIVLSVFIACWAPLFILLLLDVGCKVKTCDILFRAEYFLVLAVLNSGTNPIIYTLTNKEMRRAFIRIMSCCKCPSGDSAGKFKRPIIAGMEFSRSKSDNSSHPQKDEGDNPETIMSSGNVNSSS
UniProt Q99500: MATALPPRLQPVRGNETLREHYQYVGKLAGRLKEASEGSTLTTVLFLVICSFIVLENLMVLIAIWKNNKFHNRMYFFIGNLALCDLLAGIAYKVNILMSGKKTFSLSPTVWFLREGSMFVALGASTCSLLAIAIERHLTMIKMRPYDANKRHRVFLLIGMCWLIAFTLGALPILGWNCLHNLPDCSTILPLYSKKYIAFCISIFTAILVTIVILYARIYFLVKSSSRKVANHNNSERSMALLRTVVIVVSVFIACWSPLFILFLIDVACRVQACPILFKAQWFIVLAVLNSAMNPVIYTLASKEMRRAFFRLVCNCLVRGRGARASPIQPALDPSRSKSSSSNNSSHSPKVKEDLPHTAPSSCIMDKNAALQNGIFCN

target: T1, S1P1 (PathHunter CHO-K1 EDG1 β-Arrestin cell line) (Homo sapiens, UniProt P21453); test: S1P-1 β-Arrestin recruitment assay; format: cell-based; conditions: CHO-K1 EDG1 β-Arrestin cells, chemi-luminescence
T1 construct: host or cells: PathHunter CHO-K1 EDG1 β-Arrestin cell line
Experimental: S1P-1 β-Arrestin Recruitment Assay
β-Arrestin recruitment assays were carried out using the PathHunter CHO-K1 EDG1
β-Arrestin cell line (DiscoveRx Corporation) in a chemi-luminescence detection assay. This cell line stably expresses β-Arrestin 2 and S1P1 fused to complementing portions of β-galactosidase (‘EA’ and ‘pro-link’, respectively) which associate upon Arrestin recruitment to form functional β-galactosidase enzyme.
Cells were grown to 80% confluency in Growth Medium (F12 nutrient HAMS supplemented with 10% heat-inactivated USA FBS, 1% L-glutamax, 800 μg/ml Geneticin and 300 μg/ml Hygromycin). Cells were harvested from the flask using Enzyme Free Cell Dissociation Buffer (Gibco) and washed from flasks with Optimem solution (Gibco). Cells were then centrifuged at 1000 rpm for 2-3 min and resuspended in Assay Buffer (Prepared from Sigma kit H1387 supplemented with 20 ml/L HEPES, 4.7 ml/L NaHCO3, 0.1% pluronic acid F-68 solution, 0.1% BSA and adjusted to pH 7.4 using sodium hydroxide at 1×10^6 cells/ml. Cells were dispensed into assay plates containing compounds (100n1/well of a solution of test compound in 100% DMSO) at 1×10^4 cells/well and incubated at 37° C./5% CO2 for 90 min followed by 15 min at room temperature. 5 μl detection mix (1 part Galacton Star, 5 parts Emerald II, 19 parts Assay Buffer; DiscoveRx) were added per well and the plates incubated at room temperature for 60 min. Luminescence was quantified using a Viewlux plate reader.

| Compound | pEC50 |
| --- | --- |
| Cc1c(-c2noc(-c3ccc(OC(C)C)c(C#N)c3)n2)ccc2c1CCN(C(=O)[C@](C)(N)CO)C2 [Example 85, 2-[(1-methylethyl)oxy]-5-{3-[5-methyl-2-(2-methyl-D-seryl)-1,2,3,4-tetrahydro-6-isoquinolinyl]-1,2,4-oxadiazol-5-yl}benzonitrile] | ≥ 7 |
| Cc1c(-c2noc(-c3ccc(OC(C)C)c(Cl)c3)n2)ccc2c1CCN(C(=O)CNCCO)C2.Cl [Example 139, 2-({2-[6-(5-{3-chloro-4-[(1-methylethyl)oxy]phenyl}-1,2,4-oxadiazol-3-yl)-5-methyl-3,4-dihydro-2(1H)-isoquinolinyl]-2-oxoethyl}amino)ethanol hydrochloride] | ≥ 7 |
| CC(C)Oc1ncc(-c2nc(-c3ccc4c(c3)CCN(C[C@H](O)CO)C4)no2)cc1C#N [Example 167, 5-(3-{2-[(2S)-2,3-dihydroxypropyl]-1,2,3,4-tetrahydro-6-isoquinolinyl}-1,2,4-oxadiazol-5-yl)-2-[(1-methylethyl)oxy]-3-pyridinecarbonitrile] | ≥ 7 |
| Cc1c(-c2noc(-c3ccc(OC(C)C)c(C#N)c3)n2)ccc2c1CCN(C(=O)CN)CC2.Cl [Example 140, 5-[3-(3-glycyl-6-methyl-2,3,4,5-tetrahydro-1H-3-benzazepin-7-yl)-1,2,4-oxadiazol-5-yl]-2-[(1-methylethyl)oxy]benzonitrile hydrochloride] | ≥ 7 |
| N#Cc1cc(-c2nc(-c3ccc4c(c3)CCN(CC(O)CO)CC4)no2)ccc1OC(CF)CF (centres unmarked) [Example 60, 5-{3-[3-(2,3-dihydroxypropyl)-2,3,4,5-tetrahydro-1H-3-benzazepin-7-yl]-1,2,4-oxadiazol-5-yl}-2-{[2-fluoro-1-(fluoromethyl)ethyl]oxy}benzonitrile] | ≥ 7 |
| CC(C)Nc1ccc(-c2nc(-c3ccc4c(c3)CCN(C(=O)CN)CC4)no2)cc1C#N [Example 52, 5-[3-(3-glycyl-2,3,4,5-tetrahydro-1H-3-benzazepin-7-yl)-1,2,4-oxadiazol-5-yl]-2-[(1-methylethyl)amino]benzonitrile] | ≥ 7 |
| CC(C)Oc1ncc(-c2nc(-c3ccc4c(c3)CCN(C(CO)CO)CC4)no2)cc1C#N [Example 95, 5-(3-{3-[2-hydroxy-1-(hydroxymethyl)ethyl]-2,3,4,5-tetrahydro-1H-3-benzazepin-7-yl}-1,2,4-oxadiazol-5-yl)-2-[(1-methylethyl)oxy]-3-pyridinecarbonitrile] | ≥ 7 |
| CC(=O)NCCN1CCc2ccc(-c3noc(-c4ccc(OC(C)C)c(C#N)c4)n3)cc2CC1 [Example 101, N-{2-[7-(5-{3-cyano-4-[(1-methylethyl)oxy]phenyl}-1,2,4-oxadiazol-3-yl)-1,2,4,5-tetrahydro-3H-3-benzazepin-3-yl]ethyl}acetamide] | ≥ 7 |
| CC(C)Oc1ccc(-c2nc(-c3ccc4c(c3)CCN(C(=O)CCCN)CC4)no2)cc1C#N [Example 63, 5-{3-[3-(4-aminobutanoyl)-2,3,4,5-tetrahydro-1H-3-benzazepin-7-yl]-1,2,4-oxadiazol-5-yl}-2-[(1-methylethyl)oxy]benzonitrile] | ≥ 7 |
| CC(C)Oc1ccc(-c2nc(-c3ccc4c(c3)CCN(C(=O)CN[C@@H](C)CO)CC4)no2)cc1C#N [Example 99, 5-[3-(3-{N-[(1S)-2-hydroxy-1-methylethyl]glycyl}-2,3,4,5-tetrahydro-1H-3-benzazepin-7-yl)-1,2,4-oxadiazol-5-yl]-2-[(1-methylethyl)oxy]benzonitrile hydrochloride] | ≥ 7 |
| CCC(=O)NCCCN1CCc2ccc(-c3noc(-c4ccc(OC(C)C)c(C#N)c4)n3)cc2CC1.O=CO [Example 103, Formic acid-N-{3-[7-(5-{3-cyano-4-[(1-methylethyl)oxy]phenyl}-1,2,4-oxadiazol-3-yl)-1,2,4,5-tetrahydro-3H-3-benzazepin-3-yl]propyl}propanamide (1:1)] | ≥ 7 |
| CC(C)Oc1ccc(-c2nc(-c3ccc4c(c3)CCN(CC(=O)N[C@@H](C)CO)C4)no2)cc1C#N [Example 169, 2-[6-(5-{3-cyano-4-[(1-methylethyl)oxy]phenyl}-1,2,4-oxadiazol-3-yl)-3,4-dihydro-2(1H)-isoquinolinyl]-N-[(1S)-2-hydroxy-1-methylethyl]acetamide] | ≥ 7 |
| CC(C)Oc1ncc(-c2nc(-c3ccc4c(c3)CCN(C(CO)CO)C4)no2)cc1C#N.Cl [Example 168, 5-(3-{2-[2-hydroxy-1-(hydroxymethyl)ethyl]-1,2,3,4-tetrahydro-6-isoquinolinyl}-1,2,4-oxadiazol-5-yl)-2-[(1-methylethyl)oxy]-3-pyridinecarbonitrile hydrochloride] | ≥ 7 |
| CC(C)Oc1ncc(-c2nc(-c3ccc4c(c3)CCN(C[C@@H](O)CO)C4)no2)cc1C#N [Example 166, 5-(3-{2-[(2R)-2,3-dihydroxypropyl]-1,2,3,4-tetrahydro-6-isoquinolinyl}-1,2,4-oxadiazol-5-yl)-2-[(1-methylethyl)oxy]-3-pyridinecarbonitrile] | ≥ 7 |
| CC(C)Oc1ccc(-c2nc(-c3ccc4c(c3)CCN(C(=O)CN[C@H](C)CO)CC4)no2)cc1C#N [Example 98, 5-[3-(3-{N-(1R)-2-hydroxy-1-methylethyl]glycyl}-2,3,4,5-tetrahydro-1H-3-benzazepin-7-yl)-1,2,4-oxadiazol-5-yl]-2-[(1-methylethyl)oxy]benzonitrile hydrochloride] | ≥ 7 |
| Cc1c(-c2nnc(-c3ccc(OC(C)C)c(C#N)c3)s2)ccc2c1CCN(C(CO)CO)C2 [Example 184, 5-(5-{2-[2-hydroxy-1-(hydroxymethyl)ethyl]-5-methyl-1,2,3,4-tetrahydro-6-isoquinolinyl}-1,3,4-thiadiazol-2-yl)-2-[(1-methylethyl)oxy]benzonitrile hydrochloride] | ≥ 7 |
| CC(C)Oc1ccc(-c2nc(-c3ccc4c(c3)CCN(C(=O)[C@](C)(N)CO)CC4)no2)cc1C#N [Example 84, 2-[(1-methylethyl)oxy]-5-{3-[3-(2-methyl-D-seryl)-2,3,4,5-tetrahydro-1H-3-benzazepin-7-yl]-1,2,4-oxadiazol-5-yl}benzonitrile] | ≥ 7 |
| CCCNc1ccc(-c2nc(-c3ccc4c(c3)CCN(C(=O)CN)CC4)no2)cc1C#N [Example 53, 5-[3-(3-glycyl-2,3,4,5-tetrahydro-1H-3-benzazepin-7-yl)-1,2,4-oxadiazol-5-yl]-2-(propylamino)benzonitrile] | ≥ 7 |
| Cc1c(-c2noc(-c3cnc(OC(C)C)c(C#N)c3)n2)ccc2c1CCN(C(=O)CN)C2.Cl [Example 137, 5-[3-(2-glycyl-5-methyl-1,2,3,4-tetrahydro-6-isoquinolinyl)-1,2,4-oxadiazol-5-yl]-2-[(1-methylethyl)oxy]-3-pyridinecarbonitrile hydrochloride] | ≥ 7 |
| Cc1cc2c(cc1-c1noc(-c3ccc(OC(C)C)c(C#N)c3)n1)CCN(C[C@H](O)CO)CC2 [Example 138, 5-(3-{3-[(2S)-2,3-dihydroxypropyl]-8-methyl-2,3,4,5-tetrahydro-1H-3-benzazepin-7-yl}-1,2,4-oxadiazol-5-yl)-2-[(1-methylethyl)oxy]benzonitrile] | ≥ 7 |
| CCCOc1ccc(-c2nc(-c3ccc4c(c3)CCN(C(=O)CN)CC4)no2)cc1C#N [Example 62, 5-[3-(3-glycyl-2,3,4,5-tetrahydro-1H-3-benzazepin-7-yl)-1,2,4-oxadiazol-5-yl]-2-(propyloxy)benzonitrile] | ≥ 7 |
| Cc1c(-c2noc(-c3cnc(NC(C)C)c(C#N)c3)n2)ccc2c1CCN(C(CO)CO)C2 [Example 176, 5-(3-{2-[2-hydroxy-1-(hydroxymethyl)ethyl]-5-methyl-1,2,3,4-tetrahydro-6-isoquinolinyl}-1,2,4-oxadiazol-5-yl)-2-[(1-methylethyl)amino]-3-pyridinecarbonitrile hydrochloride] | ≥ 7 |
| CCOc1ccc(-c2nc(-c3ccc4c(c3)CCN(C(=O)CN)CC4)no2)cc1C#N [Example 61, 2-(ethyloxy)-5-[3-(3-glycyl-2,3,4,5-tetrahydro-1H-3-benzazepin-7-yl)-1,2,4-oxadiazol-5-yl]benzonitrile] | ≥ 7 |

target: T2, S1P3 (S1P3 expressing RBL membranes) (Homo sapiens, UniProt Q99500); test: S1P3 GTPγS assay; format: biochemical; conditions: first format, [35S]-GTPγS 0.3 nM
T2 construct: expressed in transfected cells; host or cells: RBL cells (membranes, crude or purified on a sucrose gradient)

| Compound | pEC50 |
| --- | --- |
| Cc1c(-c2noc(-c3ccc(OC(C)C)c(C#N)c3)n2)ccc2c1CCN(CCO)C2 [Example 7, 5-{3-[2-(2-Hydroxyethyl)-5-methyl-1,2,3,4-tetrahydro-6-isoquinolinyl]-1,2,4-oxadiazol-5-yl}-2-[(1-methylethyl)oxy]benzonitrile] | < 6 |
| CNCCC(=O)N1CCc2c(ccc(-c3noc(-c4ccc(OC(C)C)c(C#N)c4)n3)c2C)C1.Cl [Example 40, 2-[(1-methylethyl)oxy]-5-{3-[5-methyl-2-(N-methyl-b-alanyl)-1,2,3,4-tetrahydro-6-isoquinolinyl]-1,2,4-oxadiazol-5-yl}benzonitrile hydrochloride] | < 6 |
| CC(C)Oc1ccc(-c2nnc(-c3cccc4c3CCN(CCO)C4)s2)cc1C#N [Example 38, 5-{5-[2-(2-hydroxyethyl)-1,2,3,4-tetrahydro-5-isoquinolinyl]-1,3,4-thiadiazol-2-yl}-2-[(1-methylethyl)oxy]benzonitrile] | < 6 |
